This note sets out measurements from PMC6995525, “Structure of the PUB Domain from Ubiquitin Regulatory X Domain Protein 1 (UBXD1) and Its Interaction with the p97 AAA+ ATPase” (Biomolecules, 2019).

No constants are given. Whether binding was seen depends on the method and setting.

The target of this assay is UBXD1-PUB (150–264) (UniProt Q9BZV1). As to the kind of experiment: NMR 15N relaxation (rotational correlation time from T1/T2); 15N-UBXD1-PUB, 25 °C, 50 mM NaKPi pH 6.5; NMR samples 200–800 µM; averaged τc = 7.9 ns gives MW 13.0 kDa; both purified.

B1: UBXD1-PUB (150–264) (domain or fragment, UniProt Q9BZV1 150-264)
chain: STDPVAASIMKIYTFNKDQDRVKLGVDTIAKYLDNIHLHPEEEKYRKIKLQNKVFQERINCLEGTHEFFEAIGFQKVLLPAQDQEDPEEFYVLSETTLAQPQSLERHKEQLLAAE
On to B1, for which the binding entry is given as “no binding”.
